Experimental data as given in the supplement of paper PMC12819154, “High-throughput peptide-centric local stability assay extends protein–ligand identification to membrane proteins, tissues and bacteria” (Nature Structural & Molecular Biology, 2025).
The other results are listed elsewhere or left out. Most entries show no effect beyond the scatter of the controls.

Amino acid sequences for entries named in this document (tags omitted). A change or cut given only in a name is not applied to a line headed by its entry.
UniProt Q9H816: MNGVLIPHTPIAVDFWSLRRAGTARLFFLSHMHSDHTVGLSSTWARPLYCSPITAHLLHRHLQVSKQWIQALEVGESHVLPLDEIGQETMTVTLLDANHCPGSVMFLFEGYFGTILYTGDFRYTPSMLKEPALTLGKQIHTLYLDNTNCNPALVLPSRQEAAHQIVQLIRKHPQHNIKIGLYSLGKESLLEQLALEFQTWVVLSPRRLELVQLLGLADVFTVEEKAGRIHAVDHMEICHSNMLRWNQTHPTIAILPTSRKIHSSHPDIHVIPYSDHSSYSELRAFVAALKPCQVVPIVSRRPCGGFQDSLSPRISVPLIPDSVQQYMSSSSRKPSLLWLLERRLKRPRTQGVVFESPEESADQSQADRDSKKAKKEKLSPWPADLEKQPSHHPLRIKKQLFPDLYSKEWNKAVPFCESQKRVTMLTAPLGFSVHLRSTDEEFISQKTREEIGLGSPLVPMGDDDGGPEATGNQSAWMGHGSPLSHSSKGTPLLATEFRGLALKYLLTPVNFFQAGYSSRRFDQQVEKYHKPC
UniProt Q9HCN4, whole entry: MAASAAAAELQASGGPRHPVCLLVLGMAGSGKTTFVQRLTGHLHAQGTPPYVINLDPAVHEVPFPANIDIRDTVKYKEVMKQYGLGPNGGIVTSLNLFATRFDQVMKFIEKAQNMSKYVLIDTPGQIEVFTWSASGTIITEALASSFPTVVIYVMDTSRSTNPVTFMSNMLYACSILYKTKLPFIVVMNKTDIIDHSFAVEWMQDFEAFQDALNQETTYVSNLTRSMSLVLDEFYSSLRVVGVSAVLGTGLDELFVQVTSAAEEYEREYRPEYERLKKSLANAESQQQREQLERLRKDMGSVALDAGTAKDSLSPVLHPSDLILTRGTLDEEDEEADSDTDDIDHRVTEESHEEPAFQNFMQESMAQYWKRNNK
UniProt Q9HCI6: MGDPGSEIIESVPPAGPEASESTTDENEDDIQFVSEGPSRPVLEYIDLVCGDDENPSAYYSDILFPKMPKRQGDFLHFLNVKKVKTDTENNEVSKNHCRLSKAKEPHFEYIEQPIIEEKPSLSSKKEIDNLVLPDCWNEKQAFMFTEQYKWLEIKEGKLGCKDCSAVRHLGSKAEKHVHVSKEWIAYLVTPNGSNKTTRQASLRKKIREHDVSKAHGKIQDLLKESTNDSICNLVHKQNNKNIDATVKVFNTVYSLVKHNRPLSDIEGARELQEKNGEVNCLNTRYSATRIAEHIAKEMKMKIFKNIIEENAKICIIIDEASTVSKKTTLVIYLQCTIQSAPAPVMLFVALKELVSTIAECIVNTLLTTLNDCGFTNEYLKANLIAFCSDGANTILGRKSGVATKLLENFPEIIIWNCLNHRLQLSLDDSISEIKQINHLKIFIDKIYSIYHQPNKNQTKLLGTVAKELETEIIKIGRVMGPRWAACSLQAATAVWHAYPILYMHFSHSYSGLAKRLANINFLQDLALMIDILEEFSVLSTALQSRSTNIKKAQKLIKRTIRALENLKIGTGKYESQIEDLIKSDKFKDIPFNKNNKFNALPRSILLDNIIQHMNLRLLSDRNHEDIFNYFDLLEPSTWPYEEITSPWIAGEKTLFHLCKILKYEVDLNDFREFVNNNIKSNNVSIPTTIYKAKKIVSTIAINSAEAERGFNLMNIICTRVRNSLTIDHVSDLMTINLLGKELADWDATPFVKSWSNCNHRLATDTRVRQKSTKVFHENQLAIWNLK
UniProt Q9H6D7: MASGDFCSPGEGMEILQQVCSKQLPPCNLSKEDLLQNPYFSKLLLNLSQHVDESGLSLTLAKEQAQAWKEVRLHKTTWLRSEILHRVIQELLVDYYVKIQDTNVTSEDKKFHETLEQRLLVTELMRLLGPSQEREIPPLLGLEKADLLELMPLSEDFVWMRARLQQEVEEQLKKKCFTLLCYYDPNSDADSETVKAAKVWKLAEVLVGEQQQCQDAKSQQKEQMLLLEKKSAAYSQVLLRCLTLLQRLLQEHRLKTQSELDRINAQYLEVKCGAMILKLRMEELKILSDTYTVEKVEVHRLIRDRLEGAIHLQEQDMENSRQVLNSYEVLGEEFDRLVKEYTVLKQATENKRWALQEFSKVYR
UniProt Q9H9E1: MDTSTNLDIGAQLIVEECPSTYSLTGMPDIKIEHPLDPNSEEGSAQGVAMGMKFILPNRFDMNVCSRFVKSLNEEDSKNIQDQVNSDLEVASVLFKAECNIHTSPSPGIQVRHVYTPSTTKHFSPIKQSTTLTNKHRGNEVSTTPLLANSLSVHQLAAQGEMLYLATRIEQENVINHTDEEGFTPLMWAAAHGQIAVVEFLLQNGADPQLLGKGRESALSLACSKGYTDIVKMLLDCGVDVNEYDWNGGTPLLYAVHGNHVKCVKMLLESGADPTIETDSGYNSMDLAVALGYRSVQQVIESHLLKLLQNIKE
UniProt Q9NPQ8: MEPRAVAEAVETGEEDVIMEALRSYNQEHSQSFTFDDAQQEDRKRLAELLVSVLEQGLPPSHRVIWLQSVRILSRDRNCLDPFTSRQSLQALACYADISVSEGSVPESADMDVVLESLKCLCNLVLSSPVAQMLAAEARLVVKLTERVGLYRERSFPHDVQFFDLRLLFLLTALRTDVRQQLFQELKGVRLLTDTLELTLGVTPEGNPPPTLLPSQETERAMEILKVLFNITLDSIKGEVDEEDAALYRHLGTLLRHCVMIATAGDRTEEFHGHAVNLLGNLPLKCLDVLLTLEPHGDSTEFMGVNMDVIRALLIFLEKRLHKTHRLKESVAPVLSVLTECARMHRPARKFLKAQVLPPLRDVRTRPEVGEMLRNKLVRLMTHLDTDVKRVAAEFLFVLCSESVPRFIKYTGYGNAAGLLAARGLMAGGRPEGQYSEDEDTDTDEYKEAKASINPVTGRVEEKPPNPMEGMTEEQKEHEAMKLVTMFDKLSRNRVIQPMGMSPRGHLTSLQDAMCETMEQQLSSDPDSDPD
UniProt Q9H4P4: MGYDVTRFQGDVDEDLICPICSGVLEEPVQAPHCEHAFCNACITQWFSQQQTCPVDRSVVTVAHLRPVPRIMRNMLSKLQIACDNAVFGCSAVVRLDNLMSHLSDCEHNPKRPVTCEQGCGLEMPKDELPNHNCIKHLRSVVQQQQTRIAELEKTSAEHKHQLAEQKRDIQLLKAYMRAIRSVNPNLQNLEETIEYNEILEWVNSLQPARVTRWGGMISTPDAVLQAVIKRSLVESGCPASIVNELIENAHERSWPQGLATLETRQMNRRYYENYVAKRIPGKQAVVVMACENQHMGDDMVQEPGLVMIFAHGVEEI
UniProt Q9H8E8: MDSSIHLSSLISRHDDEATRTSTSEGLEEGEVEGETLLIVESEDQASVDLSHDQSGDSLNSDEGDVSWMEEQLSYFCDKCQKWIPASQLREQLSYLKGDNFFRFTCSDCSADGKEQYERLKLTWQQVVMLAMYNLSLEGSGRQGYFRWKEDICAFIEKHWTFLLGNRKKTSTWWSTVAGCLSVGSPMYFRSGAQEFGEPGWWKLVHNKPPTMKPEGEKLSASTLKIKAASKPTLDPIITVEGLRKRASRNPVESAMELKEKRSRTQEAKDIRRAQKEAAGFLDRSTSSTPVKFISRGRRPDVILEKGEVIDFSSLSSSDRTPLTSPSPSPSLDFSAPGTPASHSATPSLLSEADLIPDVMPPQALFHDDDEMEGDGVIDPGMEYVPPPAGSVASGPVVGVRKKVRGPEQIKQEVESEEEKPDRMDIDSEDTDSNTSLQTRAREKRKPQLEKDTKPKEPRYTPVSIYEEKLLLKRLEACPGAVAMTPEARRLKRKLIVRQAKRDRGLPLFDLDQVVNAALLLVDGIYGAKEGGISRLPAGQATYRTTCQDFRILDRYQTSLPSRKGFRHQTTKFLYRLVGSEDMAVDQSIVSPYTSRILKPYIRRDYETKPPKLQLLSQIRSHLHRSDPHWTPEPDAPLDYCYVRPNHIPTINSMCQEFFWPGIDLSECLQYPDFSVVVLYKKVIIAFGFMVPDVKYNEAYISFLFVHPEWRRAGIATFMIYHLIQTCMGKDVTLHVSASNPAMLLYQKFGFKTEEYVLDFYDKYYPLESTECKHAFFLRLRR

Compound: CN[C@@H]1C[C@H]2O[C@@](C)([C@@H]1OC)n1c3ccccc3c3c4c(c5c6ccccc6n2c5c31)C(=O)NC4 [staurosporine]
Assay: log2 fold change of tryptic peptide abundance, ligand vs vehicle (limited proteolysis) (log2 ratio); higher = more trypsin-susceptible (destabilized)
Conditions: ligand concentration: 20 uM; sample: K562 cleared lysate; digestion: 4 min, 22 C (HT-PELSA RT4min, Orbitrap Astral)

Target | log2 fold change
UniProt Q9H816 (peptide sequence: AFVAALKPCQVVPIVSR, peptide start residue: 284) | 0.425
GPN1 (peptide sequence: TKLPFIVVMNK, peptide start residue: 180) (UniProt Q9HCN4) | 0.24
KIAA1586 (peptide sequence: IGTGKYESQIEDLIK, peptide start residue: 569) (UniProt Q9HCI6) | 0.331
UniProt Q9H6D7 (peptide sequence: LKTQSELDRINAQYLEVK, peptide start residue: 254) | 0.494
ANKRA2 (peptide sequence: AECNIHTSPSPGIQVR, peptide start residue: 97) (UniProt Q9H9E1) | -0.122
RIC8A (peptide sequence: LLFLLTALR, peptide start residue: 167) (UniProt Q9NPQ8) | -0.212
RNF41 (peptide sequence: SVVQQQQTR, peptide start residue: 140) (UniProt Q9H4P4) | 0.0466
UniProt Q9H8E8 (peptide sequence: RLEACPGAVAMTPEAR, peptide start residue: 474) | 0.23
